Experimental data taken from patent US20220248732A1, “Saltiness-Perception Enhancing Compounds” (Frito-Lay North America, Inc., priority 2021, published 2022).
Some of these results come from one statement about several compounds together.

System: panelists (saltiness intensity)
Experiment: Descriptive analysis of saltiness intensity of topically coated potato chip samples (sample sets 3 and 4), 15-point scale
Assay type: in vivo, human
Details: applied to a food product alone or in combination
Source text: The terms “saltiness,” “saltiness intensity,” and “mean saltiness intensity” may refer to the saltiness intensity of a compound, a composition, and/or a food product determined by an individual tasting a sample of the compound, the composition, and/or the food product and rating its saltiness intensity using a designated scale, such as the 15-point saltiness scale described herein.
Next, the panelists conducted descriptive analysis to evaluate the saltiness intensity of the following four sample sets.
(3) 1 g potato chip samples with 20% reduction in NaCl (12.3 g NaCl/kg) and 40% reductions in NaCl (9.2 g NaCl/kg), relative to traditional potato chips (15.4 g NaCl/kg); and
(4) 1 g potato chip samples at 20% and 40% salt reductions (relative to standard potato chips) with the addition of a mixture of the identified saltiness-enhancing compounds topically applied to potato chips at the endogenous level of the analyzed unsalted potato chips (1×).
Panelist evaluation of sample set (3): Twelve panelists rated saltiness intensity using a 15-point scale, in duplicate. The saltiness references provided were 0 points (water), 2.5 points (0.2% NaCl), 5 points (0.35% NaCl), and 8.5 points (0.5% NaCl).
Panelist evaluation of sample set (4): Nine panelists rated saltiness intensity using a 15-point scale, in duplicate. […]

SMILES | reduction in the amount of salt applied to a food product without a significant loss of saltiness intensity [%]
O=C(O)c1cc(O[C@@H]2OC[C@@H](O)[C@H](O)[C@H]2O)ccc1O [GAX, Gentisic acid 5-O-β-D xylopyranoside] | ≥ 20
O=C(CCc1ccc(O)c(O)c1)NCCCNCCCCNCCCNC(=O)CCc1ccc(O)c(O)c1 [KA, Kukoamine A] | ≥ 20
